This note sets out measurements from article doi:10.1101/248914.

Sequences of proteins named here, by UniProt entry; tags and fusion partners are left off. A change or cut given only in a name is not applied to a line headed by its entry.
UniProt P18206: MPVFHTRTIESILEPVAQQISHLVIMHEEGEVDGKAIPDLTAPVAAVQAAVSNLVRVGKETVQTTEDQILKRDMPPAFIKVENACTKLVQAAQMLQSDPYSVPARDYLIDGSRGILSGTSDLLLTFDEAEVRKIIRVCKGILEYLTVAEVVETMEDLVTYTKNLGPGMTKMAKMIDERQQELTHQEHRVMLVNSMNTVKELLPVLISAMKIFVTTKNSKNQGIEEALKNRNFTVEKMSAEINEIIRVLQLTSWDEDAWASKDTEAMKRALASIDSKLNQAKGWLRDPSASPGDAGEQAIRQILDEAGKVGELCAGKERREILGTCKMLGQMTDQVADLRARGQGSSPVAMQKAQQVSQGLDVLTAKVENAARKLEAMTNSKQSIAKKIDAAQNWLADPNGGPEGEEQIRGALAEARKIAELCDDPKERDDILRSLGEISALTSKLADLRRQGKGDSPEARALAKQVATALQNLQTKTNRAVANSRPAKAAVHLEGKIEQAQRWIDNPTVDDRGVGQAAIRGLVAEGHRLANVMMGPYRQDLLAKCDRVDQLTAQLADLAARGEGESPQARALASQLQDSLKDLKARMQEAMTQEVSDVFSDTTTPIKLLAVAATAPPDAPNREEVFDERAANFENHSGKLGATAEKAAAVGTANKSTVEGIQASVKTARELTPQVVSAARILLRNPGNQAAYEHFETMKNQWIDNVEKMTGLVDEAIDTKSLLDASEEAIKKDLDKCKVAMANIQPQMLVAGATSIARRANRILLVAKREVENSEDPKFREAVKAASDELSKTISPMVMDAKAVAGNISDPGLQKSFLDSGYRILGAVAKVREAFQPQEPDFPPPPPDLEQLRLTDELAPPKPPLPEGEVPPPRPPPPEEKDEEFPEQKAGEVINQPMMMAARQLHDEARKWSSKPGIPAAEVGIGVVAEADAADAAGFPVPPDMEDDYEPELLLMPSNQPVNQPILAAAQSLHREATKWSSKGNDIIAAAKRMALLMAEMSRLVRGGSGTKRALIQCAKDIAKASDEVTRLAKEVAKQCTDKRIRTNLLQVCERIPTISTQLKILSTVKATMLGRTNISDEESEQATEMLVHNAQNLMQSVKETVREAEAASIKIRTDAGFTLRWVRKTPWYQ
UniProt O60234: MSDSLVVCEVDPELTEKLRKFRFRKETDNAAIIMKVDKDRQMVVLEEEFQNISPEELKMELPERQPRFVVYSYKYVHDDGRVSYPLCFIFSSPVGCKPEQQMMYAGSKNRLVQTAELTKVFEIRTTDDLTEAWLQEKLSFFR
UniProt O00401: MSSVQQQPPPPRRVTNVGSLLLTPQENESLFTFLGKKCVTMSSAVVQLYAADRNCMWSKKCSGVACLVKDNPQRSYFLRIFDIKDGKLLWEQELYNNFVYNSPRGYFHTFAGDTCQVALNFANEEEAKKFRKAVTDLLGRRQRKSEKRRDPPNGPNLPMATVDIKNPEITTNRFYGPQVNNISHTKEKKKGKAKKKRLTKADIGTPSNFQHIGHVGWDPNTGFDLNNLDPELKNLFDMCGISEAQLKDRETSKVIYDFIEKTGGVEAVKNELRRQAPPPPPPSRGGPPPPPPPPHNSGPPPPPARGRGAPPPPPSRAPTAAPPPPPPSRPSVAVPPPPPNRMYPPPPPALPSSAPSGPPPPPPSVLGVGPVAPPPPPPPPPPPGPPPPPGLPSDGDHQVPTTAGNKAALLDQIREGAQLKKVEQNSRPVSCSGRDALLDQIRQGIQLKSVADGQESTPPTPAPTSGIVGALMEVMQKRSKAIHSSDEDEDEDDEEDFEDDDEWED

Results are given in words; binding and its absence hold for the method and conditions named. In cells and extracts the contact can be indirect. A result given as binding can be weak or reduced; the word gives no strength.

The assay addresses vinculin (human (endogenous in HASMC)) (UniProt P18206). The assay can be described thus: co-IP.

For “Glia maturation factor-γ (GMFγ) (from UniProt O60234 1-142)”, the binding entry was “binds”.
In the case of “Neural Wiskott-Aldrich syndrome protein phosphorylated at tyrosine 256, N-WASP (pY256) (from UniProt O00401 1-505)”, the binding result is listed as “binds”.
